In the assay the target is T1, TWEAKR-Flag-LeuZip2 (extracellular domain of human TWEAKR expressed in E. coli as a leucine zipper dimer fusion protein) (human) (UniProt Q9NP84).
T1 sequence: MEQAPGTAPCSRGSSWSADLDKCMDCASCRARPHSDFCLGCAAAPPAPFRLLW
In words: ligand blot of E. coli lysate probed with TWEAK, visualized with an anti-TWEAK antibody.

The chains behind the UniProt entries cited, without tags or fusion partners. Residues count along the entry.
UniProt O43508, residues 94-249: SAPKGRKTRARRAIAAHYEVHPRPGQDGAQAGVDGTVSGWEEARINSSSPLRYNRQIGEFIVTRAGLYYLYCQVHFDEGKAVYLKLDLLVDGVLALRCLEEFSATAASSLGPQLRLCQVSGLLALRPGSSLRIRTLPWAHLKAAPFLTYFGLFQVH

These are yes or no findings as the source states them, for the method shown. Some results given as binding are weak or reduced against the parent protein; the word gives no strength. Tags and fused reporters may be left off the sequences shown.

In the case of “TWEAK (probe of the ligand blot of Example 2) (from UniProt O43508 94-249)”, the binding entry was “binds”.
